Assay results published in patent US20150315270A1 (CONSEJO NACIONAL DE INVESTIGATION CIENTIFICA, published 2015).
These are yes or no findings as the source states them, for the method shown. Some binding calls cover weakened binding; strength is not graded here.

Molecular target: T1, human VEGF-B186 (human, UniProt P49765 22-207)
T1 construct: also called Vascular endothelial growth factor antigen B
T1 sequence: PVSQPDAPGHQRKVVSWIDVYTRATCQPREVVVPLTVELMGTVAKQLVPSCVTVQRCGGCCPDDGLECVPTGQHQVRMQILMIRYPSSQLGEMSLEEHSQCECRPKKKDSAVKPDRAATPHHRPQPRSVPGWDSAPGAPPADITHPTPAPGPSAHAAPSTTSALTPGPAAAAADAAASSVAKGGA
Assay: SPR, Biacore T100

binding: binds
B1: mMcA-AB1-anti-VEGF-A (mouse monoclonal antibody A-AB1-anti-VEGF-A) (antibody, V domains shown)
VH: QVKLLESGPELKKPGETVKISCKASGYTFTNFGMNWVKQAPGKGLKWMGWINTNTGEPTYVDDFKGRFAFSLETSASSAYLQISNLNNEDTATYFCARYYGSTSVWYFDVWGAGTTVTVSS
VL: ELVMTQTPSSLSASLGDRVTITCRASQDIFNYLNWYQQKPDGPIKLLIYYSSRLHSGVPSRFSGSGSGTDYSLTISNLDREDIATYFCQQGFTLPWTFGGGTKLEIKR
notes: also called mMc-AB1-anti-VEGF-A; mouse AB1 antibody
